Experimental data reported in article PMC9101739.
These are yes or no findings as the source states them, for the method shown. In cells and extracts the contact can be indirect.

The chains behind the UniProt entries cited, without tags or fusion partners.
UniProt Q6P179: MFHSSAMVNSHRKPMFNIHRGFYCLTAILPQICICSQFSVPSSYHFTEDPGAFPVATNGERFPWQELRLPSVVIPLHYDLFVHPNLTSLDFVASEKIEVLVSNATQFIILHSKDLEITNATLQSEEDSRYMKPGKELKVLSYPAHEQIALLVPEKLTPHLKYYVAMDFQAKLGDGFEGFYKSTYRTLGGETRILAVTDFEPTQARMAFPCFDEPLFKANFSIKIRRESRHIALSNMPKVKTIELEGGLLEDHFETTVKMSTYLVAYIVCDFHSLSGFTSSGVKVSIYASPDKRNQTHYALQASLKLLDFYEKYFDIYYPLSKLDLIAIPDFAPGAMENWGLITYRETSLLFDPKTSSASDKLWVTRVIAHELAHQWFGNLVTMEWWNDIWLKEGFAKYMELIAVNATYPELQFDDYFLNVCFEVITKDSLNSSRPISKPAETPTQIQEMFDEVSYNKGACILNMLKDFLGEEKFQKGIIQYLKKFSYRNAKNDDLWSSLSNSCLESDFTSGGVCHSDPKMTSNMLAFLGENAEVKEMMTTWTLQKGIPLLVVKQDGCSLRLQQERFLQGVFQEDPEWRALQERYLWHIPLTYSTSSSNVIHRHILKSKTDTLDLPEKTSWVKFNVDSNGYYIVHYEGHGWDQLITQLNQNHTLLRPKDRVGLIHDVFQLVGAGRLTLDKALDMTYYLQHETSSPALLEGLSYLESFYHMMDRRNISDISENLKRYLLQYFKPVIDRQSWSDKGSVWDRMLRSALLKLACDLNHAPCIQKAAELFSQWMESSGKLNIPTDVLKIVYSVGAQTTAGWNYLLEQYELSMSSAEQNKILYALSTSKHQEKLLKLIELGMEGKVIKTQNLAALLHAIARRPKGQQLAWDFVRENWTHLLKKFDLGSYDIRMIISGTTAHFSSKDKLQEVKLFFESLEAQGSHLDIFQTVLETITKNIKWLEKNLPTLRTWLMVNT
UniProt Q9UIQ6: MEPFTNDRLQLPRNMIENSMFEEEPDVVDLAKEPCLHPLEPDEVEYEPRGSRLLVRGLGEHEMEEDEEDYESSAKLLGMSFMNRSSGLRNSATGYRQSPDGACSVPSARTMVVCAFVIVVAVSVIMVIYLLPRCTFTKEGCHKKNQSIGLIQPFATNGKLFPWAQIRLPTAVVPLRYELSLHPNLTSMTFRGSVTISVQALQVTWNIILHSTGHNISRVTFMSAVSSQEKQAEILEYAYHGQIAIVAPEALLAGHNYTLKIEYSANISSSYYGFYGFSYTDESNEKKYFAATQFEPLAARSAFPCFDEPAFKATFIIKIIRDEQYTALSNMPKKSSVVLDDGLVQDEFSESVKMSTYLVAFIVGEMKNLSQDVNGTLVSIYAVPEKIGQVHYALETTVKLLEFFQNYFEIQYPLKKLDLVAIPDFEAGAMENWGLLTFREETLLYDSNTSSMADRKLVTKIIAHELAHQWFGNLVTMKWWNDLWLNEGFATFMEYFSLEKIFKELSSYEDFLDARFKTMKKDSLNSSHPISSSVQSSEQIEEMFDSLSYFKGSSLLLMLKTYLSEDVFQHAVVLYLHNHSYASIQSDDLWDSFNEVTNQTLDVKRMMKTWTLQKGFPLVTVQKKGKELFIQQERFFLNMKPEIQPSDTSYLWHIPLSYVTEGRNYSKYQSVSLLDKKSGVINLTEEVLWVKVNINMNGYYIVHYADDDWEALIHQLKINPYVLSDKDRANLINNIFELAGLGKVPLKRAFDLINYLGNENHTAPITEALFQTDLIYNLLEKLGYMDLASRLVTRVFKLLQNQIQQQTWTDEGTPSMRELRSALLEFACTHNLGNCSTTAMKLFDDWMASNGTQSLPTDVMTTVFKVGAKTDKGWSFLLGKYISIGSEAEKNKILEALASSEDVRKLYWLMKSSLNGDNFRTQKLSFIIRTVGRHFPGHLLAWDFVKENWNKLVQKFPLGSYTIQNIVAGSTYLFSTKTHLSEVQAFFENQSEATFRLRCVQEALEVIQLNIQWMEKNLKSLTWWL
UniProt Q9NZ08: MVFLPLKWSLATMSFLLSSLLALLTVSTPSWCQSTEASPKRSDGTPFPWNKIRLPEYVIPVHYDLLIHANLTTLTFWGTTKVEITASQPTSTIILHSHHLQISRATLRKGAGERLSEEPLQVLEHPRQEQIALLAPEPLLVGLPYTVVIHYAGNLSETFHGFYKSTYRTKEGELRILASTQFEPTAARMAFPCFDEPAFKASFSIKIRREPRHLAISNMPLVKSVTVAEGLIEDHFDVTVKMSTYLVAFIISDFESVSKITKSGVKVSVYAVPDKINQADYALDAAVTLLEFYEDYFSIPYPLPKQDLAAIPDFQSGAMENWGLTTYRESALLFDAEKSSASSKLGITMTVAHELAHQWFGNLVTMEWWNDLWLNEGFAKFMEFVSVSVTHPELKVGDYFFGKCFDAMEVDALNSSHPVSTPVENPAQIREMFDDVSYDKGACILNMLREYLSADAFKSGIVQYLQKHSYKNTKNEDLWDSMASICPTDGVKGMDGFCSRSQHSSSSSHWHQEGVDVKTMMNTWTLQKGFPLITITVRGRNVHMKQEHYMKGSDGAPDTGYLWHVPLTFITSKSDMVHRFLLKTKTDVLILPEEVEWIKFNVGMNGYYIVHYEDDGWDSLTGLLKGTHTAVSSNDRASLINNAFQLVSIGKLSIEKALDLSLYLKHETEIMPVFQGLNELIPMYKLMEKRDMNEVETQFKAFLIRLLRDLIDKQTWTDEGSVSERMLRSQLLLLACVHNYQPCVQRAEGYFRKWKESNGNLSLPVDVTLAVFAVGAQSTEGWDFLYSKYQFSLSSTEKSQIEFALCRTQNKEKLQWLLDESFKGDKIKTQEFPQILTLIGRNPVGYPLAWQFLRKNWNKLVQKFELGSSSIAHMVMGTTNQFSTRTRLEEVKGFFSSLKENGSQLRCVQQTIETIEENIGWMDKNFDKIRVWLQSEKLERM

Legend:
[1] = target: ERAP2 full length (canonical ERAP2 protein, 115 kDa) (human (endogenous in U937)) (UniProt Q6P179); test: co-IP; MoAbs (anti-ERAP2, anti-IRAP, anti-ERAP1) cross-linked to resin with DSS (Pierce Crosslink Immunoprecipitation kit); 1 mg of pre-cleared total lysate of U937 cells, untreated or treated with 80 nM PMA for 96 h, incubated overnight at 4 °C; eluted with the kit's elution buffer; eluates blotted with the three MoAbs
[2] = target: IRAP (product of the gene LNPEP) (human (endogenous in U937)) (UniProt Q9UIQ6); test: as above

ERAP1 (from UniProt Q9NZ08 1-941) (enzyme)
binding [1]: no binding
binding [2]: no binding
